Laboratory results: article PMC12622526
These are yes or no findings as the source states them, for the method shown. In cells and extracts the contact can be indirect. Some binding calls cover weakened binding; strength is not graded here. For some assays here: Sequences can lack the tags named with a protein.

Key:
[1] = target: COA4 (cytochrome c oxidase assembly factor 4), endogenous (human) (UniProt Q9NYJ1); assay: proximity ligation; in situ Duolink PLA (Sigma–Aldrich DUO92101) in A549, 293T and H23 cells
[2] = target: COA4‐Flag (human cytochrome c oxidase assembly factor 4), transfected in A549 cells (human) (UniProt Q9NYJ1); assay: co-IP; Co‐IP of COA4‐Flag from transfected A549 cells; Pierce IP Lysis Buffer, primary antibody and Protein A/G magnetic beads overnight at 4 °C, Western blot

- binding [1]: binds
- binding [2]: binds
B1: SLC25A3 (protein, UniProt Q00325 50-362)
chain: AVEEQYSCDYGSGRFFILCGLGGIISCGTTHTALVPLDLVKCRMQVDPQKYKGIFNGFSVTLKEDGVRGLAKGWAPTFLGYSMQGLCKFGFYEVFKVLYSNMLGEENTYLWRTSLYLAASASAEFFADIALAPMEAAKVRIQTQPGYANTLRDAAPKMYKEEGLKAFYKGVAPLWMRQIPYTMMKFACFERTVEALYKFVVPKPRSECSKPEQLVVTFVAGYIAGVFCAIVSHPADSVVSVLNKEKGSSASLVLKRLGFKGVWKGLFARIIMIGTLTALQWFIYDSVKVYFRLPRPPPPEMPESLKKKLGLTQ
